Test results taken from paper PMC7862700.
The entries are a selection whose mix differs from that of the whole data set. At the low end of the ranking the order means little.

Amino acid sequences for entries named in this document (tags omitted). A change or cut given only in a name is not applied to a line headed by its entry.
UniProt P41161: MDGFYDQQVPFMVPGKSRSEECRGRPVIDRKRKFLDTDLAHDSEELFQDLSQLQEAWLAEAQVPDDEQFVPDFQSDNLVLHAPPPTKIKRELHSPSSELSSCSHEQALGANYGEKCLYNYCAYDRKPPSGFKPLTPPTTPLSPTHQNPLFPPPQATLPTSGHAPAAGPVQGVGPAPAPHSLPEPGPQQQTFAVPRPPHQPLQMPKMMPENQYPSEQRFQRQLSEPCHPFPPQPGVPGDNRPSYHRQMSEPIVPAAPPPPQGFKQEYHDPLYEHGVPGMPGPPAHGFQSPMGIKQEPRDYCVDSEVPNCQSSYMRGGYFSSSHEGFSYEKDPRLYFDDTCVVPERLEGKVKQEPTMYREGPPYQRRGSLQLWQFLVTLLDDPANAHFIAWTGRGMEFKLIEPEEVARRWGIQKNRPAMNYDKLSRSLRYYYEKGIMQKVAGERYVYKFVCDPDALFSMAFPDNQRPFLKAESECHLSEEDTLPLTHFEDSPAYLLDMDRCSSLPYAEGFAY

The sequences below were run against ETV5 (UniProt P41161) (assay: DAPPL (digital affinity profiling via proximity ligation, sequencing)). Details: 10 mM Tris-HCl pH 7.5, 50 mM NaCl, 1 mM DTT, 4% glycerol, room temperature, 30 min; GST-TFs on glutathione beads, 16-mer random dsDNA library, 0.1% …; high values mean tight binding; double strand, one strand shown; scale: fold enrichment (6-mer frequency, TF over GST control).
Sequence CCTAAT has a binding signal of 1.31. In the case of TGATTG, the binding signal was 0.992. Work on CTCGAG yielded a binding signal of 1.26. Sequence GTTAAA has a binding signal of 1.02. TTAGCT was tested, and the binding signal was 1.2. CCGTCT showed a binding signal of 1.36. In the case of ATGGTC, the binding signal was 1.57. TATCCA gave a binding signal of 1.27. In the case of AGATCT, the binding signal was 0.929. TCCCCC was tested, and the binding signal was 1.48. For TACAAA, the binding signal was 1.15. Work on TGACTG yielded a binding signal of 1.03. With ATGCCA the binding signal was 1.05. For TGCTGG, the binding signal was 1.04. CCTCTG showed a binding signal of 1.56. ATAAGA showed a binding signal of 0.985. Work on TTTTTC yielded a binding signal of 1.27. CTGTAT was tested, and the binding signal was 1.35. With CATTGC the binding signal was 0.995. In the case of AATATG, the binding signal was 1.2. GATGTA showed a binding signal of 1.37. CAACTT was tested, and the binding signal was 1.58. Sequence CCTGCG has a binding signal of 1.27. Work on ATTGTT yielded a binding signal of 1.57. In the case of AGCGCC, the binding signal was 1.04. TCCAAA was tested, and the binding signal was 1.12. In the case of GCACTG, the binding signal was 1.05. Work on CCGGTT yielded a binding signal of 2.15. In the case of GCTCTT, the binding signal was 1.53. With CACACC the binding signal was 0.996. ATACGA showed a binding signal of 1.17. Sequence TGGGGT has a binding signal of 1.13. For TCTTCG, the binding signal was 1.51. In the case of TAGCCT, the binding signal was 1.22. CTAGCC showed a binding signal of 0.931. For TATGCC, the binding signal was 1.18. Work on GAAAAC yielded a binding signal of 1.13. CGCGAT gave a binding signal of 0.933. Work on CGTATC yielded a binding signal of 1.13. ACCTAT showed a binding signal of 1.14.

What follows are sequences tested against T1, ETV3L (UniProt Q6ZN32) in the same assay as above. Details: 10 mM Tris-HCl pH 7.5, 50 mM NaCl, 1 mM DTT, 4% glycerol, room temperature, 30 min; GST-TFs on glutathione beads, 16-mer random dsDNA library, 0.1% …; high values mean tight binding; double strand, one strand shown; scale: fold enrichment (6-mer frequency, TF over GST control).
T1 sequence: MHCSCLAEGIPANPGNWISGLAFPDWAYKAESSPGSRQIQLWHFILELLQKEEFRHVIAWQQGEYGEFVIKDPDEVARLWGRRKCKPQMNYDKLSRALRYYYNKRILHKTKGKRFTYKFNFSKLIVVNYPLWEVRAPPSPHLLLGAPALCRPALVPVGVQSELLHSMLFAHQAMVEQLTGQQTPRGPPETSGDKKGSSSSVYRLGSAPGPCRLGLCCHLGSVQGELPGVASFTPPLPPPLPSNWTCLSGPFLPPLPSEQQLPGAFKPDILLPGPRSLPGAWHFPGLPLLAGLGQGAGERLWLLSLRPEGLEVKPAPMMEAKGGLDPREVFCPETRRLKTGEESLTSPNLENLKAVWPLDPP
Sequence CCTAAT has a binding signal of 1.33. For CCGTCT, the binding signal was 1.4. Work on TATCCA yielded a binding signal of 1.28. In the case of AGATCT, the binding signal was 0.988. GATGTA was tested, and the binding signal was 1.39. TCCAAA gave a binding signal of 1.18. For CACACC, the binding signal was 1.02. In the case of TATGCC, the binding signal was 1.12. Sequence CGTATC has a binding signal of 1.24.
